Drawing on publication PMC12390941, “Ubiquitin-specific protease 7-mediated stabilization of discoidin domain receptor 1 drives progression of TP53-Mutant cancers” (The Journal of Biological Chemistry, 2025), this text covers binding for one substance.

Amino acid sequences for entries named in this document (tags omitted). Residues count along the entry.
UniProt Q08345, residues 19-913: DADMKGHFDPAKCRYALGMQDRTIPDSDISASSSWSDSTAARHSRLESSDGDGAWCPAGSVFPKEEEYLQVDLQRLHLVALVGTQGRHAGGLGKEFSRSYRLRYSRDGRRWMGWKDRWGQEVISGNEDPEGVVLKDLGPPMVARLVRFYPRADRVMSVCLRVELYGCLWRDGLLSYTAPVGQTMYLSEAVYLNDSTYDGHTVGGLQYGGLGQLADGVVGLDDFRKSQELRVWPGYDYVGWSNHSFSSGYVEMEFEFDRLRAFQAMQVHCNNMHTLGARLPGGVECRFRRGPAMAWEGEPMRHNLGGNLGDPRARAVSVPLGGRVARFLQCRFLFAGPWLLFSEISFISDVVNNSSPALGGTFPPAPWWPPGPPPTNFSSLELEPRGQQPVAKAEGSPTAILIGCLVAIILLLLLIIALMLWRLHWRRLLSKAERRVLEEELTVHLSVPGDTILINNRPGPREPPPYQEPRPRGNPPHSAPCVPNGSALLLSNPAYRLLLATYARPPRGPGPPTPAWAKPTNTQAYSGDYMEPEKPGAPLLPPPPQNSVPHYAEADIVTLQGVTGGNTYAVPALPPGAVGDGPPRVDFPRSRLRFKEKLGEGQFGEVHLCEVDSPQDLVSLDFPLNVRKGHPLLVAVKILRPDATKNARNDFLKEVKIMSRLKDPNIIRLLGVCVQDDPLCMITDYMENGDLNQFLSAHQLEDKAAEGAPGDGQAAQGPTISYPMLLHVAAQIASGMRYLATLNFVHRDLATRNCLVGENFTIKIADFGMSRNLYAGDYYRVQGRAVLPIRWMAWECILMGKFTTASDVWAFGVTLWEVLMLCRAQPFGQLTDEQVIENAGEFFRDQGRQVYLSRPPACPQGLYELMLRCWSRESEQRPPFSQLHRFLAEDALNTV
UniProt Q93009: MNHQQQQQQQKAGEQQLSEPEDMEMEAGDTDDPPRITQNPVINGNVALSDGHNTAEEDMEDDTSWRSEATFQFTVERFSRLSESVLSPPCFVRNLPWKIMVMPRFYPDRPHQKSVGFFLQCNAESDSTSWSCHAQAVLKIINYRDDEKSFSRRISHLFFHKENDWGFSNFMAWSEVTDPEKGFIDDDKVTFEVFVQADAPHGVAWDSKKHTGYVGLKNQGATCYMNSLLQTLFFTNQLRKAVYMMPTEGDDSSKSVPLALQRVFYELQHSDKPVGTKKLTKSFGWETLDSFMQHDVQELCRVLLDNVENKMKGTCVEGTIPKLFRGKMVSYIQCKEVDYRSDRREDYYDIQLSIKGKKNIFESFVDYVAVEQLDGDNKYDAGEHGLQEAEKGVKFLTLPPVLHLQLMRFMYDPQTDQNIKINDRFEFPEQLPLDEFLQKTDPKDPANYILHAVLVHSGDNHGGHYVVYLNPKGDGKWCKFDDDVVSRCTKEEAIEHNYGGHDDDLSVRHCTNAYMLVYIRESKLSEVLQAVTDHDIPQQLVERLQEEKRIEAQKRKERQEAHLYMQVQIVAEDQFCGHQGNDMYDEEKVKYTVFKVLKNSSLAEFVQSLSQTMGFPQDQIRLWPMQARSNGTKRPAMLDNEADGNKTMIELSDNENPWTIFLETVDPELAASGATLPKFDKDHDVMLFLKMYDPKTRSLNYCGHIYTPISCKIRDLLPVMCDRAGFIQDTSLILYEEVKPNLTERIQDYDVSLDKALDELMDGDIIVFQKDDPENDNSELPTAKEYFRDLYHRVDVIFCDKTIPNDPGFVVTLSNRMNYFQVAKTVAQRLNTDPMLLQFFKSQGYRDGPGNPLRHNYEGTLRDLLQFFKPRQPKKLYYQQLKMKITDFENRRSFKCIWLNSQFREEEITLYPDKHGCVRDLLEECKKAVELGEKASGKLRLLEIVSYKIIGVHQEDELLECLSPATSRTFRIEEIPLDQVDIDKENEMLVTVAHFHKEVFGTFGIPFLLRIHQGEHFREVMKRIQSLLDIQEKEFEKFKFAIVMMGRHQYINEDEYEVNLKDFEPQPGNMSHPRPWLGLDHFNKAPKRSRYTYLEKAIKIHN

The assay concerns the target Discoidin Domain Receptor 1 (endogenous, A549 cells) (human (endogenous in A549)) (UniProt Q08345). Description: affinity purification with mass spectrometry; immunoprecipitation of endogenous DDR1 from A549 cells, enzymatic digestion, LC-MS.

These are yes or no findings as the source states them, for the method shown. Binding seen in cells or lysates may run through a third protein. These calls come from enrichment with a bait or labelling near it, and not all partners need be listed.

For “Ubiquitin-specific protease 7 (endogenous, A549 cells) (from UniProt Q93009 1-1102) (enzyme)”, the binding entry is “binds”.
